No constants are given. Whether binding was seen depends on the method and setting. Binding seen in cells or lysates may run through a third protein. Here binding means that the protein was enriched with, or labelled near, the bait; the list need not be complete.
B1: RCTB (protein, UniProt Q9Y3I0 1-505)
chain: MSRSYNDELQFLEKINKNCWRIKKGFVPNMQVEGVFYVNDALEKLMFEELRNACRGGGVGGFLPAMKQIGNVAALPGIVHRSIGLPDVHSGYGFAIGNMAAFDMNDPEAVVSPGGVGFDINCGVRLLRTNLDESDVQPVKEQLAQAMFDHIPVGVGSKGVIPMNAKDLEEALEMGVDWSLREGYAWAEDKEHCEEYGRMLQADPNKVSARAKKRGLPQLGTLGAGNHYAEIQVVDEIFNEYAAKKMGIDHKGQVCVMIHSGSRGLGHQVATDALVAMEKAMKRDKIIVNDRQLACARIASPEGQDYLKGMAAAGNYAWVNRSSMTFLTRQAFAKVFNTTPDDLDLHVIYDVSHNIAKVEQHVVDGKERTLLVHRKGSTRAFPPHHPLIAVDYQLTGQPVLIGGTMGTCSYVLTGTEQGMTETFGTTCHGAGRALSRAKSRRNLDFQDVLDKLADMGIAIRVASPKLVMEEAPESYKNVTDVVNTCHDAGISKKAIKLRPIAVIKG
B2: HNRNPDL (protein, UniProt O14979 1-420)
chain: MEVPPRLSHVPPPLFPSAPATLASRSLSHWRPRPPRQLAPLLPSLAPSSARQGARRAQRHVTAQQPSRLAGGAAIKGGRRRRPDLFRRHFKSSSIQRSAAAAAATRTARQHPPADSSVTMEDMNEYSNIEEFAEGSKINASKNQQDDGKMFIGGLSWDTSKKDLTEYLSRFGEVVDCTIKTDPVTGRSRGFGFVLFKDAASVDKVLELKEHKLDGKLIDPKRAKALKGKEPPKKVFVGGLSPDTSEEQIKEYFGAFGEIENIELPMDTKTNERRGFCFITYTDEEPVKKLLESRYHQIGSGKCEIKVAQPKEVYRQQQQQQKGGRGAAAGGRGGTRGRGRGQGQNWNQGFNNYYDQGYGNYNSAYGGDQNYSGYGGYDYTGYNYGNYGYGQGYADYSGQQSTYGKASRGGGNHQNNYQPY
B3: TIA1 (protein, UniProt P31483 1-386)
chain: MEDEMPKTLYVGNLSRDVTEALILQLFSQIGPCKNCKMIMDTAGNDPYCFVEFHEHRHAAAALAAMNGRKIMGKEVKVNWATTPSSQKKDTSSSTVVSTQRSQDHFHVFVGDLSPEITTEDIKAAFAPFGRISDARVVKDMATGKSKGYGFVSFFNKWDAENAIQQMGGQWLGGRQIRTNWATRKPPAPKSTYESNTKQLSYDEVVNQSSPSNCTVYCGGVTSGLTEQLMRQTFSPFGQIMEIRVFPDKGYSFVRFNSHESAAHAIVSVNGTTIEGHVVKCYWGKETLDMINPVQQQNQIGYPQPYGQWGQWYGNAQQIGQYMPNGWQVPAYGMYGQAWNQQGFNQTQSSAPWMGPNYGVQPPQGQNGSMLPNQPSGYRVAGYETQ
B4: UBAP2 (protein, UniProt Q5T6F2 1-1119)
chain: MMTSVSSDHCRGAREKPQISAAQSTQPQKQVVQATAEQMRLAQVIFDKNDSDFEAKVKQLMEVTGKNQDECIVALHDCNGDVNKAINILLEGNSDTTSWETVGCKKKNFAKENSENKENREKKSEKESSRGRGNNNRKGRGGNRGREFRGEENGIDCNQVDKPSDRGKRARGRGFGRGRGRGAGRFSTQGMGTFNPADYSDSTSTDVCGTKLVVWEAAQNGADEGTELASNTHNIAQDLSNKSSYGLKGAWKNSVEEWTTEDWTEDLSETKVFTASSAPAENHILPGQSIDLVALLQKPVPHSQASEANSFETSQQQGFGQALVFTNSQHNNQMAPGTGSSTAVNSCSPQSLSSVLGSGFGELAPPKMANITSSQILDQLKAPSLGQFTTTPSTQQNSTSHPTTTTSWDLKPPTSQSSVLSHLDFKSQPEPSPVLSQLSQRQQHQSQAVTVPPPGLESFPSQAKLRESTPGDSPSTVNKLLQLPSTTIENISVSVHQPQPKHIKLAKRRIPPASKIPASAVEMPGSADVTGLNVQFGALEFGSEPSLSEFGSAPSSENSNQIPISLYSKSLSEPLNTSLSMTSAVQNSTYTTSVITSCSLTSSSLNSASPVAMSSSYDQSSVHNRIPYQSPVSSSESAPGTIMNGHGGGRSQQTLDTPKTTGPPSALPSVSSLPSTTSCTALLPSTSQHTGDLTSSPLSQLSSSLSSHQSSLSAHAALSSSTSHTHASVESASSHQSSATFSTAATSVSSSASSGASLSSSMNTANSLCLGGTPASASSSSSRAAPLVTSGKAPPNLPQGVPPLLHNQYLVGPGGLLPAYPIYGYDELQMLQSRLPVDYYGIPFAAPTALASRDGSLANNPYPGDVTKFGRGDSASPAPATTPAQPQQSQSQTHHTAQQPFVNPALPPGYSYTGLPYYTGMPSAFQYGPTMFVPPASAKQHGVNLSTPTPPFQQASGYGQHGYSTGYDDLTQGTAAGDYSKGGYAGSSQAPNKSAGSGPGKGVSVSSSTTGLPDMTGSVYNKTQTFDKQGFHAGTPPPFSLPSVLGSTGPLASGAAPGYAPPPFLHILPAHQQPHSQLLHHHLPQDAQSGSGQRSQPSSLQPKSQASKPAYGNSPYWTN
B5: C14ORF166 (protein, UniProt Q9Y224 1-244)
chain: MFRRKLTALDYHNPAGFNCKDETEFRNFIVWLEDQKIRHYKIEDRGNLRNIHSSDWPKFFEKYLRDVNCPFKIQDRQEAIDWLLGLAVRLEYGDNAEKYKDLVPDNSKTADNATKNAEPLINLDVNNPDFKAGVMALANLLQIQRHDDYLVMLKAIRILVQERLTQDAVAKANQTKEGLPVALDKHILGFDTGDAVLNEAAQILRLLHIEELRELQTKINEAIVAVQAIIADPKTDHRLGKVGR
B6: PEF1 (protein, UniProt Q9UBV8 1-284)
chain: MASYPYRQGCPGAAGQAPGAPPGSYYPGPPNSGGQYGSGLPPGGGYGGPAPGGPYGPPAGGGPYGHPNPGMFPSGTPGGPYGGAAPGGPYGQPPPSSYGAQQPGLYGQGGAPPNVDPEAYSWFQSVDSDHSGYISMKELKQALVNCNWSSFNDETCLMMINMFDKTKSGRIDVYGFSALWKFIQQWKNLFQQYDRDRSGSISYTELQQALSQMGYNLSPQFTQLLVSRYCPRSANPAMQLDRFIQVCTQLQVLTEAFREKDTAVQGNIRLSFEDFVTMTASRML
B7: ANXA7 (protein, UniProt P20073 1-488)
chain: MSYPGYPPTGYPPFPGYPPAGQESSFPPSGQYPYPSGFPPMGGGAYPQVPSSGYPGAGGYPAPGGYPAPGGYPGAPQPGGAPSYPGVPPGQGFGVPPGGAGFSGYPQPPSQSYGGGPAQVPLPGGFPGGQMPSQYPGGQPTYPSQINTDSFSSYPVFSPVSLDYSSEPATVTQVTQGTIRPAANFDAIRDAEILRKAMKGFGTDEQAIVDVVANRSNDQRQKIKAAFKTSYGKDLIKDLKSELSGNMEELILALFMPPTYYDAWSLRKAMQGAGTQERVLIEILCTRTNQEIREIVRCYQSEFGRDLEKDIRSDTSGHFERLLVSMCQGNRDENQSINHQMAQEDAQRLYQAGEGRLGTDESCFNMILATRSFPQLRATMEAYSRMANRDLLSSVSREFSGYVESGLKTILQCALNRPAFFAERLYYAMKGAGTDDSTLVRIVVTRSEIDLVQIKQMFAQMYQKTLGTMIAGDTSGDYRRLLLAIVGQ

The chains behind the UniProt entries cited, without tags or fusion partners.
UniProt Q99729: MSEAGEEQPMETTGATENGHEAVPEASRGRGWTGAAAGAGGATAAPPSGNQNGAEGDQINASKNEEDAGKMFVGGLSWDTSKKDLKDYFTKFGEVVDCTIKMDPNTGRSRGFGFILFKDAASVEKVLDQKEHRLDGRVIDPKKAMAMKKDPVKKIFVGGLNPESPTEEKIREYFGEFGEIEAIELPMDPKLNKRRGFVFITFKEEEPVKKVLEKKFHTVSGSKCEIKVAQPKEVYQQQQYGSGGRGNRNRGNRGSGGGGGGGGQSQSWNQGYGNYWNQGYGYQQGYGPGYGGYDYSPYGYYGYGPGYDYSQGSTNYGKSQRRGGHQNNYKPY
UniProt O75340: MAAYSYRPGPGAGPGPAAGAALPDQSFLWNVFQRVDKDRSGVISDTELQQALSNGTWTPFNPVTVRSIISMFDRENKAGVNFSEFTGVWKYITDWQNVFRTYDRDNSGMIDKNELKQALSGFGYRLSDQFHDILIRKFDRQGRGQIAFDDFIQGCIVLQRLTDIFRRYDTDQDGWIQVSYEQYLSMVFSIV
UniProt Q7Z739: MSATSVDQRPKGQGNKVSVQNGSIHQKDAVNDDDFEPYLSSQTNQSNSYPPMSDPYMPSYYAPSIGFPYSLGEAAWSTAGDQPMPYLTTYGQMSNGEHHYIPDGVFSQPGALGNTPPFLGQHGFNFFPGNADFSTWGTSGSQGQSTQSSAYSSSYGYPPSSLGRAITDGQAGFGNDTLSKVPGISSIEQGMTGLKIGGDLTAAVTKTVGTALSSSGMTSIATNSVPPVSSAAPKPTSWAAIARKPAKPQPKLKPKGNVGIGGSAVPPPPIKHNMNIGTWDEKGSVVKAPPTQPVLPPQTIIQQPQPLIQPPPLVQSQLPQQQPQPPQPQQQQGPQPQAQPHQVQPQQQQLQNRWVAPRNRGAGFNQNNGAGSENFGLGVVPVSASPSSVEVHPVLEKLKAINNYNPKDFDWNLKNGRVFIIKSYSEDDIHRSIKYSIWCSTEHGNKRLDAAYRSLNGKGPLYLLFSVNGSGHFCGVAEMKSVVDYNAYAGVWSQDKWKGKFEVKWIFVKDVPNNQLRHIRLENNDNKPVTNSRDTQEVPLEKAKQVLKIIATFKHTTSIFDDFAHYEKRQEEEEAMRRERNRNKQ
UniProt Q14157: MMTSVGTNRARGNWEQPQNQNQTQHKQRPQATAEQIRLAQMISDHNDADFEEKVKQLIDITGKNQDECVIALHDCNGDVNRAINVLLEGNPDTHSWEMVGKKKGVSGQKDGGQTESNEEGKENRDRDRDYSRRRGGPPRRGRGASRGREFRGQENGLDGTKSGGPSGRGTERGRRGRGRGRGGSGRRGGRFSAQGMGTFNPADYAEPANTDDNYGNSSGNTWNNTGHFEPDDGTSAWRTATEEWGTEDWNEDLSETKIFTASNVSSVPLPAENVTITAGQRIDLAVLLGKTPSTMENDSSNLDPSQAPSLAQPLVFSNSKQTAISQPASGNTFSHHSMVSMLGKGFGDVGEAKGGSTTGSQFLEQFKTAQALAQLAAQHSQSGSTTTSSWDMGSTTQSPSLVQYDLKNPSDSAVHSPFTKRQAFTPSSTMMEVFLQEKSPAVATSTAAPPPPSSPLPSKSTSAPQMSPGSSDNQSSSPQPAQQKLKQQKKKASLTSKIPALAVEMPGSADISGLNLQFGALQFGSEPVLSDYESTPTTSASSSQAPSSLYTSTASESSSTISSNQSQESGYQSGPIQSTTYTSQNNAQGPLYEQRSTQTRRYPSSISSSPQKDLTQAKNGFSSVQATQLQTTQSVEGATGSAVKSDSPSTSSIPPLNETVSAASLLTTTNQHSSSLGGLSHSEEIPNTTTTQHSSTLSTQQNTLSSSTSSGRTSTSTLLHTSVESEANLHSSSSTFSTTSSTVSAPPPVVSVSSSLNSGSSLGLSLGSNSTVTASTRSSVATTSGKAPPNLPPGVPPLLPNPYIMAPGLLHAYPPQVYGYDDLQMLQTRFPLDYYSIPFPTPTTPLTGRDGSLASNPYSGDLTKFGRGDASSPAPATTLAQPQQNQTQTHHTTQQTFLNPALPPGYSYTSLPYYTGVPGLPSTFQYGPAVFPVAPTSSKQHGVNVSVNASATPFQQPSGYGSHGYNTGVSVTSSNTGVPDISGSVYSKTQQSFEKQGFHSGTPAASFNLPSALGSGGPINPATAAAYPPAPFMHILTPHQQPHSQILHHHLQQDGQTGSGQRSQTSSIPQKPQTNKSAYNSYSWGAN
UniProt Q52LJ0: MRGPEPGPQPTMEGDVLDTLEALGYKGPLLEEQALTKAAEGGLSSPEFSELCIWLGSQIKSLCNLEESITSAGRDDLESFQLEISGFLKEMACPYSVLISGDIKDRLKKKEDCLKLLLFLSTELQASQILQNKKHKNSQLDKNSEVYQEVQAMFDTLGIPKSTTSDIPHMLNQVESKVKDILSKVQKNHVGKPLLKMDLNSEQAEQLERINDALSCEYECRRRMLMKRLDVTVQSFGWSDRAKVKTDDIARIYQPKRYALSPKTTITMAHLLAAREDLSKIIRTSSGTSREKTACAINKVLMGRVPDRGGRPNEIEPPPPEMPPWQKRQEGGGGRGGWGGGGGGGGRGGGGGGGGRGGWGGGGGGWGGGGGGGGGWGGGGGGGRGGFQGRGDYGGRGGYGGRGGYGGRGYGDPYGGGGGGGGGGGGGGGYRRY
UniProt P52701: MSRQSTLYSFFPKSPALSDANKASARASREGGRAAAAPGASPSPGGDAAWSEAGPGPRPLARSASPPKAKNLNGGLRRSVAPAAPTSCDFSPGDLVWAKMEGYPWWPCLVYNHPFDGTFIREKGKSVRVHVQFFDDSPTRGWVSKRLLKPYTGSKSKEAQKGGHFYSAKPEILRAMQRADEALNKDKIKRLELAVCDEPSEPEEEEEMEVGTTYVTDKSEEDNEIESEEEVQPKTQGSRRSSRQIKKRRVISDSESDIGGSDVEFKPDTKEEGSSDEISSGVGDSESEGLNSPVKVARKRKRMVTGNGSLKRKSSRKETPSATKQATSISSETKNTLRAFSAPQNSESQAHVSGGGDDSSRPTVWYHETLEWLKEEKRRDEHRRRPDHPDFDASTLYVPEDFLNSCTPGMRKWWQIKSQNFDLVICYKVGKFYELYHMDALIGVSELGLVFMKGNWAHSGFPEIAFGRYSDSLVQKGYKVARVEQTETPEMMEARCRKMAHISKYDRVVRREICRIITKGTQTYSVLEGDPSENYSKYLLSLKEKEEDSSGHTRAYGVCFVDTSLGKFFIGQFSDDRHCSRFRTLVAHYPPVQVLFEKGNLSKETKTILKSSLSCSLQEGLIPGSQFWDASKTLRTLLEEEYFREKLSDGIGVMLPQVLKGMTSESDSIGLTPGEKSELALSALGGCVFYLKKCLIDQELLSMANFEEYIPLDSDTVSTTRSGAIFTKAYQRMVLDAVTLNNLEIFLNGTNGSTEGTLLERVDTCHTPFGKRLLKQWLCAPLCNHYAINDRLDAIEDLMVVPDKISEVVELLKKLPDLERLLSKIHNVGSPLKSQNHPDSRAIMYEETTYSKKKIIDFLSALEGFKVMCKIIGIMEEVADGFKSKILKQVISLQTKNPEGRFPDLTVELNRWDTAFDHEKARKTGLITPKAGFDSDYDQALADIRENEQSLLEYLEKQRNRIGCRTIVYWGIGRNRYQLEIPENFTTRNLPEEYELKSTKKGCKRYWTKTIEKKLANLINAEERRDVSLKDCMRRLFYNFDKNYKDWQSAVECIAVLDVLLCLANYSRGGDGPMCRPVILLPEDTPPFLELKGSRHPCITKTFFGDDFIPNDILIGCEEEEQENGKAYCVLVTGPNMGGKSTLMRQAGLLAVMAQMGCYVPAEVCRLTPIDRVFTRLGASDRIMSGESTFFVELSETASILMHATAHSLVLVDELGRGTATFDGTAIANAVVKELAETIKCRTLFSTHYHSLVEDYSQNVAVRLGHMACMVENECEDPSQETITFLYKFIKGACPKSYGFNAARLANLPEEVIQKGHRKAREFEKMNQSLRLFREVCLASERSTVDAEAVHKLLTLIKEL
UniProt Q7Z2W4: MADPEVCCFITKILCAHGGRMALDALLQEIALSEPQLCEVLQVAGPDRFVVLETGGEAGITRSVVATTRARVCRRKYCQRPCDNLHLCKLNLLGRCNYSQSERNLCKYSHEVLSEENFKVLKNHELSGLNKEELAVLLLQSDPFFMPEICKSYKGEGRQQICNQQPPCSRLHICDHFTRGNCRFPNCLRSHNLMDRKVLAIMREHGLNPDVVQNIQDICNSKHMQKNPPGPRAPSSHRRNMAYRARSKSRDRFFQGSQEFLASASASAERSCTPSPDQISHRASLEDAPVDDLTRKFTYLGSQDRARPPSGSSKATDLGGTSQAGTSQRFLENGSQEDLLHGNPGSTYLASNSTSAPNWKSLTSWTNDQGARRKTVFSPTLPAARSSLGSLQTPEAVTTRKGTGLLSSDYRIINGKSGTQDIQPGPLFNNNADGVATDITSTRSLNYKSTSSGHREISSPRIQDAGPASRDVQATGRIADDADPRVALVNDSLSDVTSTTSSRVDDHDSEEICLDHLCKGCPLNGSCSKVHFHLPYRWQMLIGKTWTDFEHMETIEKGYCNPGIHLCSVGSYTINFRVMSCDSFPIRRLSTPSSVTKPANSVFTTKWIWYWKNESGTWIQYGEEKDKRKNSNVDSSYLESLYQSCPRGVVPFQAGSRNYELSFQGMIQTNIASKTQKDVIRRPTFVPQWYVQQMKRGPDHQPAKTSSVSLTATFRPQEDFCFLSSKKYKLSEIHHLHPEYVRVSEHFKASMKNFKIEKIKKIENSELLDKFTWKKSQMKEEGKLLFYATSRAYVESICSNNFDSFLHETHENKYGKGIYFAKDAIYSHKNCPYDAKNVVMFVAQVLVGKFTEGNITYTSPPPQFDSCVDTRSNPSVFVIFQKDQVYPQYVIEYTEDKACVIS
UniProt Q8IZH2: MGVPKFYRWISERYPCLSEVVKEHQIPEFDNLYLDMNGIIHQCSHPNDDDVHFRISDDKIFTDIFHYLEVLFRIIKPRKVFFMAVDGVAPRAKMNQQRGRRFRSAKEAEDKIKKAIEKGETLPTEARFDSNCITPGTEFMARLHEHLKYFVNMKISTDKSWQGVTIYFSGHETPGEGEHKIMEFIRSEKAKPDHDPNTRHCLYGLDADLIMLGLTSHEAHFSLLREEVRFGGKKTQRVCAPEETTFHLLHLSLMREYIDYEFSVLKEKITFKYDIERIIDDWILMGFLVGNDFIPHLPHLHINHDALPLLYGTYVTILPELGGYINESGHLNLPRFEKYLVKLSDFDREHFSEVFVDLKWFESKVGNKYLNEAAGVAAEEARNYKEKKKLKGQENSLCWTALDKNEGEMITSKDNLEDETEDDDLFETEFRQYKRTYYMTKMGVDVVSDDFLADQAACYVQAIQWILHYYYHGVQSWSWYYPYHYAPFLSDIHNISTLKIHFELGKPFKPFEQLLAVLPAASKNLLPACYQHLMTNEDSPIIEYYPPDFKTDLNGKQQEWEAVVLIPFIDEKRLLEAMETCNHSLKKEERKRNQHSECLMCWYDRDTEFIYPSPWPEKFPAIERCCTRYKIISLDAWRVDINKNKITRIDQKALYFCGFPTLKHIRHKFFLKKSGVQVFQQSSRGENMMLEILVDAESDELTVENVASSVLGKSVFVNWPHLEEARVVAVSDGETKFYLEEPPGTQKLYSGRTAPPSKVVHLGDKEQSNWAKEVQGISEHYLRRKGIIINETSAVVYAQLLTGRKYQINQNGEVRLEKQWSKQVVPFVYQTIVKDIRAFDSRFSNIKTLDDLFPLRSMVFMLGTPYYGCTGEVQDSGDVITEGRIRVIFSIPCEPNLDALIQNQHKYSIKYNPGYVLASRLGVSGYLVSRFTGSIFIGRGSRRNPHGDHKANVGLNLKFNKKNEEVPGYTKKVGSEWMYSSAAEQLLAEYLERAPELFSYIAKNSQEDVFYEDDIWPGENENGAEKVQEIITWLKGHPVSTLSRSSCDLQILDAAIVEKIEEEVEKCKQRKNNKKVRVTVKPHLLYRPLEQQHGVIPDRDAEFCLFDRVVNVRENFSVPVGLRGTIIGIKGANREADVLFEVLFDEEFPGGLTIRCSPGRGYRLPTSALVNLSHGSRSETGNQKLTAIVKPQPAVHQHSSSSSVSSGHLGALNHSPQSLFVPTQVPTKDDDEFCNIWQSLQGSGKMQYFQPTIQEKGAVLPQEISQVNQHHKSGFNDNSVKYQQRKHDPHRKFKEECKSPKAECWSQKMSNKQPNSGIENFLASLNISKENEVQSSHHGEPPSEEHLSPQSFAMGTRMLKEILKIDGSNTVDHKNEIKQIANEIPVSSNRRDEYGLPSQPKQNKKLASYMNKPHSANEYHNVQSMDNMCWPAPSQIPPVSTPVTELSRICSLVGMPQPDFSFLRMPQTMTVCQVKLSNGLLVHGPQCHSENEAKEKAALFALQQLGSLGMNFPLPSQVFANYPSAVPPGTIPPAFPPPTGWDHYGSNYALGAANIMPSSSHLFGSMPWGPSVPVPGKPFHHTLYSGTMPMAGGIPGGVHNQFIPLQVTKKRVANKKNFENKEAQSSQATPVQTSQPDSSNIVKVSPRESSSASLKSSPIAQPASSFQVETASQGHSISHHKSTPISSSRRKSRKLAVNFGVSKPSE

target: G3BP1-APEX2-GFP (human (endogenous in HEK293T)) (UniProt Q13283); test: proximity labelling

Row | binding | Molecule
1 | binds | HNRNPAB (from UniProt Q99729 1-332)
2 | binds | PDCD6 (from UniProt O75340 1-191)
3 | binds | YTHDF3 (from UniProt Q7Z739 1-585)
4 | binds | UBAP2L (from UniProt Q14157 1-1087)
5 | binds | FAM98A (from UniProt Q8NCA5 1-518)
6 | binds | FAM98B (from UniProt Q52LJ0 1-433)
7 | binds | PABPC4L (from UniProt P0CB38 1-370)
8 | binds | MSH6 (from UniProt P52701 1-1360)
9 | binds | ZC3HAV1 (from UniProt Q7Z2W4 1-902)
10 | binds | PABPC1 (from UniProt P11940 1-636)
11 | binds | XRN1 (from UniProt Q8IZH2 1-1706)
12 | binds | B1
13 | binds | B2
14 | binds | B3
15 | binds | B4
16 | binds | B5
17 | binds | B6
18 | binds | B7
